Patent US6384077B1, “Highly purified EPA for treatment of schizophrenia and related disorders” (Laxdale Limited, priority 1999, dated 2002)
At least one compound was matched to its structure with a doubt left.

Tests used:
schizophrenia = test: case history: schizophrenia, E-EPA added to clozapine; format: in vivo, human; settings: patient not responding to typical neuroleptics; clozapine up to 900 mg/day
From the text: This mechanism is thought to be responsible for their rapid effects on the so-called “positive” symptoms of schizophrenia (such as hallucinations, delusions and thought disorder). […] The D2 blocking action is also responsible for many of the adverse effects of these drugs, which include extrapyramidal movement disorders, excess prolactin secretion, and tardive dyskinesias. Examples of widely used drugs in this class include chlorpromazine, thioridazine, haloperidol, pimozide, flupenthixol and sulpiride.
These may include blockade of one or more of the other dopamine receptors such as D1, D3 or D4, and also usually including blockade of one or more classes of serotonin receptors. […] They may also have actions at other receptors, including histamine, glutamate and acetyl choline receptors.
The patient was treated with clozapine, eventually reaching a maximum dose of 900 mg/day.
E-EPA in a dose of 2 g/day was then administered in addition to clozapine.

phospholipase A2 = settings: cited from earlier work

Row | Compound | clinical response to neuroleptic alone (schizophrenia) | inhibition of phospholipase A2 (phospholipase A2)
1 | Cc1cc2c(s1)Nc1ccccc1N=C2N1CCN(C)CC1 [olanzapine, reference compound] | no substantial benefit | –
2 | CC/C=C\C/C=C\C/C=C\C/C=C\C/C=C\C/C=C\CCC(=O)O [DHA, docosahexaenoic acid, reference compound] | – | no effect
